At least one structure is not confirmed: it was looked up by name or label, or the drawing left a doubt.
Test system: adult human subjects with type 2 diabetes at high risk for cardiovascular events
Assay: Randomised double-blind placebo-controlled trial: diabetic foot ulcer events and characterisation thereof
Type: in vivo
[1] = Outcome: Recovered with sequelae

## CCCCCCCCCCCCCCCC(=O)N[C@@H](CCC(=O)NCCCC[C@H](NC(=O)[C@H](C)NC(=O)[C@H](C)NC(=O)[C@H](CCC(N)=O)NC(=O)CNC(=O)[C@H](CCC(=O)O)NC(=O)[C@H](CC(C)C)NC(=O)[C@H](Cc1ccc(O)cc1)NC(=O)[C@H](CO)NC(=O)[C@H](CO)NC(=O)[C@@H](NC(=O)[C@H](CC(=O)O)NC(=O)[C@H](CO)NC(=O)[C@@H](NC(=O)[C@H](Cc1ccccc1)NC(=O)[C@@H](NC(=O)CNC(=O)[C@H](CCC(=O)O)NC(=O)[C@H](C)NC(=O)[C@@H](N)Cc1cnc[nH]1)[C@@H](C)O)[C@@H](C)O)C(C)C)C(=O)N[C@@H](CCC(=O)O)C(=O)N[C@@H](Cc1ccccc1)C(=O)N[C@H](C(=O)N[C@@H](C)C(=O)N[C@@H](Cc1c[nH]c2ccccc12)C(=O)N[C@@H](CC(C)C)C(=O)N[C@H](C(=O)N[C@@H](CCCNC(=N)N)C(=O)NCC(=O)N[C@@H](CCCNC(=N)N)C(=O)NCC(=O)O)C(C)C)[C@@H](C)CC)C(=O)O [Liraglutide, Arg34,Lys26-(N-epsilon-(gamma-L-glutamyl(N-alfa-hexadecanoyl)))-GLP-1(7-37)]
Outcome: Not recovered
  Diabetic foot ulcer events, % (proportion of subjects): 0.7%
  Diabetic foot ulcer events, N (number of subjects): 32
Outcome: Recovered
  Diabetic foot ulcer events, % (proportion of subjects): 2.9%
  Diabetic foot ulcer events, N (number of subjects): 134
[1]
  Diabetic foot ulcer events, % (proportion of subjects): 0.6%
  Diabetic foot ulcer events, N (number of subjects): 30
Outcome: Recovering
  Diabetic foot ulcer events, % (proportion of subjects): 0.2%
  Diabetic foot ulcer events, N (number of subjects): 8
Outcome: Unknown
  Diabetic foot ulcer events, % (proportion of subjects): <0.1%
  Diabetic foot ulcer events, N (number of subjects): 1
Serious: No
  Diabetic foot ulcer events, % (proportion of subjects): 2.2%
Serious: Yes
  Diabetic foot ulcer events, % (proportion of subjects): 2.0%
  Diabetic foot ulcer events, N (number of subjects): 93
Severity: Mild
  Diabetic foot ulcer events, % (proportion of subjects): 1.2%
  Diabetic foot ulcer events, N (number of subjects): 57
Severity: Moderate
  Diabetic foot ulcer events, % (proportion of subjects): 2.1%
  Diabetic foot ulcer events, N (number of subjects): 97
Severity: Severe
  Diabetic foot ulcer events, % (proportion of subjects): 1.1%
  Diabetic foot ulcer events, N (number of subjects): 50
All events
  Diabetic foot ulcer events, % (proportion of subjects): 3.9%
All events, liraglutide up to 1.8 mg s.c. once daily, 3.5-5 years
  Diabetic foot ulcer events, N (number of subjects): 181
Chronic administration for at least 16 months, compared to placebo
  Risk of developing diabetic foot ulcer (Kaplan-Meier plot of events over time): reduced the risk
Compared to placebo
  Frequency of diabetic foot ulcer: reduced the frequency
  Frequency of serious diabetic foot ulcer: reduced the frequency
  Frequency of severe or moderate diabetic foot ulcer: reduced the frequency
